The source of these data is paper PMC11377751.

Protein sequences, listed by entry. Tags and fused reporters are not part of them.
UniProt Q5TYM5: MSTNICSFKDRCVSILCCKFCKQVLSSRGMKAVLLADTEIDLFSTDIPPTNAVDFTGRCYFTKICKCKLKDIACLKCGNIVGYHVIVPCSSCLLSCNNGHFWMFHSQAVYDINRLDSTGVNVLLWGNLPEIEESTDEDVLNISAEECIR
UniProt Q86X60: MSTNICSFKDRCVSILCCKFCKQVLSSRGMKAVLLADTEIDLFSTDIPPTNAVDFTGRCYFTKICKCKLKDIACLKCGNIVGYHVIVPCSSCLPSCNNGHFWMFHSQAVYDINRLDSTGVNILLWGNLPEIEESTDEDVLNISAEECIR
UniProt Q6L9T8: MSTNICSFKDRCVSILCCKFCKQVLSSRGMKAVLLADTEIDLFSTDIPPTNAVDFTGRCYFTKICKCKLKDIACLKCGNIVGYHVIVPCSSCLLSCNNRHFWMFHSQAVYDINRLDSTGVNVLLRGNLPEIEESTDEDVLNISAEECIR
UniProt H0Y354: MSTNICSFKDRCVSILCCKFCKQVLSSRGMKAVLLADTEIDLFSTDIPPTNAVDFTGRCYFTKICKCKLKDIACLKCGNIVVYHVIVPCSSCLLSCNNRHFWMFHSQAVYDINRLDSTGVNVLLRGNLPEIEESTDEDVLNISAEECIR
UniProt P27694: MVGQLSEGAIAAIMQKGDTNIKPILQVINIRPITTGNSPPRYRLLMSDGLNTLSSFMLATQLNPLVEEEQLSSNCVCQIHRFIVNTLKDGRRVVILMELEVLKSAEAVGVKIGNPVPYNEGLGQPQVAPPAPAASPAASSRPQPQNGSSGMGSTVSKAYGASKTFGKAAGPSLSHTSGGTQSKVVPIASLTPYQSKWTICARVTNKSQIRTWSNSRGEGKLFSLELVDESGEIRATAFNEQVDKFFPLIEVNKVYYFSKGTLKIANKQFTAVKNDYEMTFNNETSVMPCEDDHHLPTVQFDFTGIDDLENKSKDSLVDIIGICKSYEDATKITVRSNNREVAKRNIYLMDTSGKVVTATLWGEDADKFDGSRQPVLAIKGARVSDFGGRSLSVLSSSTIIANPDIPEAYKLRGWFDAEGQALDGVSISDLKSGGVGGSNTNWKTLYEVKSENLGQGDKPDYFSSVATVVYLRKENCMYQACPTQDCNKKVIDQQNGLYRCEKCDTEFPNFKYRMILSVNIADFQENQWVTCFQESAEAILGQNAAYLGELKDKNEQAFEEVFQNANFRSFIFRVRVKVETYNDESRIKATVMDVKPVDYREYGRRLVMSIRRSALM

Results are given in words; binding and its absence hold for the method and conditions named. In cells and extracts the contact can be indirect. Some results given as binding are weak or reduced against the parent protein; the word gives no strength.

The target of assay [1] is GFP-FAM72A (human) (UniProt Q5TYM5). Kind of assay: pull-down; GFP pulldown from cell extracts of HEK293T cells co-expressing GFP-FAM72A with FLAG-tagged FAM72B, FAM72C or FAM72D.
The target of assay [2] is FLAG-FAM72B (human) (UniProt Q86X60). Kind of assay: co-IP; FLAG pulldown (anti-FLAG M2 magnetic beads) of high salt cell extracts from HEK293T cells expressing FLAG-FAM72B; immunoblot of eluted immunocomplexes.

Turning to “FLAG-tagged FAM72D (from UniProt Q6L9T8 1-149)”, the binding result in assay [1] is given as “binds”.

Regarding “FLAG-tagged FAM72C (from UniProt H0Y354 1-149)”, the binding result in assay [1] is listed as “binds”.

As to RPA1 (from UniProt P27694 1-616), the binding entry in assay [2] was “binds”.

With FLAG-FAM72B (from UniProt Q86X60 1-149), in assay [1], the binding entry is given as “binds”.
